Reference: PubChem BioAssay AID504467 (National Center for Advancing Translational Sciences (NCATS), 2011)
Hit rate of the full screen: of about 330,000 compounds, about 7,700 (2.3%) were called active. The inconclusive results got no clear call from the source; some entries with a clear call stand among them for comparison. Calls come from the whole dose curve; as a rule, active = well fitted inhibition curve with a large enough effect; inconclusive = small, poorly fitted or top-dose-only effect, or effect the other way; inactive = flat fitted curve, though single readings scatter. Where the call is inconclusive, the potency comes from a doubtful curve fit.

experiment: qHTS screen for small molecules that inhibit ELG1-dependent DNA repair in human embryonic kidney (HEK293T) cells expressing luciferase-tagged ELG1; details: HEK293T ELG1-luciferase reporter, luminescence, 16 h, DNA damage induced by 5-fluorouridine; activity change, negative = inhibition: at 46.1 µM (top of the series); note: nearly all actives have a fitted effect of over 55% in size
Method in brief: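 Reporter activity after DNA damage by 5-fluorouridine is monitored. Compound-treated cells incubate 16 hr at 37 °C, then ONE-Glo is added for 30 min before luminescence reading.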
% is set by controls: 0 for no effect and ±100 for the full control effect; potency is the fitted concentration of half-maximal effect.

Structure (SMILES)	Potency	activity change, negative = inhibition
CCCCN(CCCC)c1nc(-c2ccncc2)nc2ccccc12	inconclusive: 29.1 µM [inhibitor, single point]	
Nc1nc2c(s1)CCc1c-2cnn1-c1ccccc1	inconclusive: 3.26 µM [activator, partial curve]	
CCOc1cc(C(=O)OCC(=O)c2cc(C)n(CC3CCCO3)c2C)ccc1OCC(=O)N1CCOCC1 (stereo not given)		inactive: -3.58%
CCOC(=O)c1cccc(NC(=O)C2CCCN2S(=O)(=O)c2cccc3cccnc23)c1 (stereo not given)		inactive: -12.1%
COc1ccc(-c2sc(Nc3ccccc3)n[n+]2-c2ccc(F)cc2)c(OC)c1OC		inactive: 6.71%
CN(C)S(=O)(=O)c1ccc(NC(=O)c2ccc(Br)o2)cc1	inconclusive: 14.6 µM [activator, single point]	
O=[N+]([O-])c1ccc(NNC(=S)Nc2ccccc2)cc1	inconclusive: 32.6 µM [inhibitor, single point]	
O=C(CSc1nnc(NC(=O)c2ccco2)s1)Nc1ccc(F)cc1F		inactive: 24.8%
COc1cc2nc(NC(=O)c3ccccc3)[nH]c(=O)c2cc1OC	inconclusive: 20.6 µM [inhibitor, single point]	
CSc1ccccc1C(=O)N(C)C(c1ccccc1)c1ccccc1	inconclusive: 32.6 µM [inhibitor, single point]	
Cc1noc2ncnc(N3CCN(c4ccc(F)cc4)CC3)c12	inconclusive: 11.6 µM [inhibitor, partial curve]	
CCN(CC)c1ccc(NC(=O)CN2CCN(c3ccccc3F)CC2)cc1		inactive: -17.9%
CC(=O)NN1C(=O)c2ccc3c4c(ccc(c24)C1=O)C(=O)N(NC(C)=O)C3=O	inconclusive: 6.51 µM [inhibitor, partial curve]	
CCc1c(C(C)O)oc2ccc3c(C)cc(=O)oc3c12 (stereo not given)	inconclusive: 16.4 µM [inhibitor, partial curve, poor fit]	
Cc1ccc(C(=O)c2cc3ccccc3o2)cc1[N+](=O)[O-]		inactive: 1.38%
O=C(NCc1ccccc1)c1cccc(COc2ccccc2Cl)c1	inconclusive: 3.26 µM [activator, partial curve]	
C=CCNC(=O)c1onc(CSc2cc(C)ccc2C)c1C(=O)O		inactive: -2.1%
COc1ccccc1NC(=O)CCN1C(=O)c2ccccc2C1=O		inactive: 11.3%
Cc1ccc(-c2ccc(CCC(=O)O)n2NC(=O)c2cccs2)cc1	inconclusive: 6.51 µM [inhibitor, single point]	
Cc1ccc(C(=O)NCc2nnc(SCC(=O)NC(C)c3ccccc3)n2C)cc1 (stereo not given)	inconclusive: 18.3 µM [activator, single point]	
CCc1ccccc1NC(=O)CNC(=O)c1cc(C2CC2)nn1-c1ccccc1	inconclusive: 29.1 µM [inhibitor, single point]	
OCCSc1nc(N2CCOCC2)nc(N2CCOCC2)n1	inconclusive: 32.6 µM [inhibitor, single point]	
COc1ccc(C(=O)COC(=O)CCNS(=O)(=O)c2ccccc2)cc1Br		inactive: 15.3%

Already shown: an excerpt of the list.
Structure (SMILES)	Potency	activity change, negative = inhibition
CSc1ccccc1C(=O)N(C)C(c1ccccc1)c1ccccc1	inconclusive: 32.6 µM [inhibitor, single point]	
Cc1noc2ncnc(N3CCN(c4ccc(F)cc4)CC3)c12	inconclusive: 11.6 µM [inhibitor, partial curve]	
CCN(CC)c1ccc(NC(=O)CN2CCN(c3ccccc3F)CC2)cc1		inactive: -17.9%
CC(=O)NN1C(=O)c2ccc3c4c(ccc(c24)C1=O)C(=O)N(NC(C)=O)C3=O	inconclusive: 6.51 µM [inhibitor, partial curve]	
CCc1c(C(C)O)oc2ccc3c(C)cc(=O)oc3c12 (stereo not given)	inconclusive: 16.4 µM [inhibitor, partial curve, poor fit]	
Cc1ccc(C(=O)c2cc3ccccc3o2)cc1[N+](=O)[O-]		inactive: 1.38%
O=C(NCc1ccccc1)c1cccc(COc2ccccc2Cl)c1	inconclusive: 3.26 µM [activator, partial curve]	
C=CCNC(=O)c1onc(CSc2cc(C)ccc2C)c1C(=O)O		inactive: -2.1%

Next results:

Structure (SMILES)	Potency	activity change, negative = inhibition
COc1ccc(C(C(=O)NC2CCCCC2)N(C(=O)CCl)c2ccc(OC)cc2)cc1 (stereo not given)	inconclusive: 18.4 µM [inhibitor, partial curve]	
CCCCCO		inactive: 5.76%
CN(C(=O)c1ccccc1C(=O)OCC(=O)c1ccc(Br)cc1)c1ccccc1		inactive: -18.5%
Clc1ccc(OCc2nnc3n2N=C(c2ccc4c(c2)OCCO4)CS3)c(Cl)c1	inconclusive: 29.1 µM [inhibitor, single point]	
Cc1ccc(-c2nn(-c3ccc(F)cc3)cc2C(=O)NCC(c2cccs2)N2CCOCC2)cc1 (stereo not given)	inconclusive: 18.3 µM [inhibitor, partial curve, poor fit]	
Cc1cc(C)n(-c2c(F)c(F)c(COC(=O)c3ccccc3)c(F)c2F)n1	inconclusive: 16.4 µM [inhibitor, single point]	
O=C(COC(=O)C12CC3CC(CC(C3)C1)C2)Nc1ccc([N+](=O)[O-])cc1Cl	active: 20.6 µM	
CS(=O)(=O)C1=NN2C(=N)/C(=C\c3ccc(OC(=O)c4ccco4)cc3)C(=O)N=C2S1		inactive: -0.0901%
CC1Oc2ccccc2N(Cc2ccccc2Cl)C1=O (stereo not given)	inconclusive: 20.6 µM [activator, partial curve, poor fit]	
CC1CCCC(NC(=O)COC(=O)c2ccc([N+](=O)[O-])s2)C1C (stereo not given)	inconclusive: 5.17 µM [activator, partial curve, poor fit]	
CC1(C)Cc2cccc(OCC(=O)NC3CC3)c2O1	inconclusive: 20.6 µM [activator, single point]	
O=C(Nc1ccc2nsnc2c1)c1ccc2c(c1)OCO2	inconclusive: 0.58 µM [activator, full curve]	
CC(=O)N1CCCc2cc(S(=O)(=O)N3CCCC(C(=O)Nc4ccc(C)cc4C)C3)ccc21 (stereo not given)	inconclusive: 16.4 µM [inhibitor, partial curve, poor fit]	
O=C(O)CCSc1ccccn1		inactive: -4.56%
CCOC(=O)c1nnn(CC(=O)N2N=C(c3cccc4ccccc34)CC2c2ccccc2)c1C(=O)OCC (stereo not given)	inconclusive: 16.4 µM [inhibitor, partial curve, poor fit]	
Cc1cc(C)c(C(=O)N(CCN(C)C)CC2CCCN(Cc3ccccc3F)C2)o1 (stereo not given)		inactive: 4.54%
CCC(=O)Nc1c(C)cc(C)cc1Cl		inactive: 5.61%
COc1ccc(-c2cc(C(F)(F)F)nc(N3CCN(C)CC3)n2)cc1	inconclusive: 7.31 µM [activator, partial curve, poor fit]	
CCOC(=O)c1c(N)sc(C(=O)OC)c1C	inconclusive: 25.9 µM [activator, single point]	
O=C(/C=C/c1cccs1)NC1CCCC1	inconclusive: 29.1 µM [activator, partial curve, poor fit]	
Cc1ccc2cc3cc(C(=O)N4CCCCCC4)oc3nc2c1	inconclusive: 1.3 µM [activator, partial curve]	
Cc1ccccc1NC(=O)Cc1nc(COC(=O)c2ccc([N+](=O)[O-])cc2)cs1	inconclusive: 0.103 µM [activator, single point]	
